These are yes or no findings as the source states them, for the method shown. In cells and extracts the contact can be indirect. These calls come from enrichment with a bait or labelling near it, and not all partners need be listed. Sequences can lack the tags named with a protein.
Biological target: T1, LAP (localization and purification) tagged human BBS4 (human) (UniProt Q96RK4)
T1 sequence: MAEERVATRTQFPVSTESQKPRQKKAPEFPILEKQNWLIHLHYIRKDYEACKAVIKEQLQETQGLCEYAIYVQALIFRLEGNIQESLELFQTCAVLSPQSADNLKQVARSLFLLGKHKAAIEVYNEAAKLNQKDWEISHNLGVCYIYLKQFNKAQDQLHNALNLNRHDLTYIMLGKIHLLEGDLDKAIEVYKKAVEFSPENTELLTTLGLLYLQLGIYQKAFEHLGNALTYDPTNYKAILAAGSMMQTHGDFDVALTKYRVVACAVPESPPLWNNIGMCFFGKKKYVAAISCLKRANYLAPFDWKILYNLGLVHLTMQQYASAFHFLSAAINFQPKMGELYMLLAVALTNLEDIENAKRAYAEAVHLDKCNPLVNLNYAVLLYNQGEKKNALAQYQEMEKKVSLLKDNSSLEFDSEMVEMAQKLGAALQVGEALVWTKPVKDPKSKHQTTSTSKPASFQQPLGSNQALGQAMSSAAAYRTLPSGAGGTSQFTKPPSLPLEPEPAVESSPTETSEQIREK
Assay: affinity purification with mass spectrometry; single-step IP with anti-GFP affinity beads from whole testis lysate of LAP-BBS4 transgenic and wild-type mice; 4-12% NuPAGE gel, silver stain, excised bands identified by LC-MS/MS

- binding: binds
B1: azacytidine-induced protein 1 (Azi1), mouse testis (protein, UniProt Q62036 1-1060)
chain: MKGSRTITATPEGSPEAVDLSLIGLPPPMSQRPGSASATRSIFRSMSVATGSEPRKKALEATGPGGPRAINNLRRSNSTTQVNQSWTGSPRPAEPTDFLMLFEGSTSGRRRVASLSKASSEKEATWNVLDEQPRGLALPASAQSPSTLDSALGPRRKECPLAPSFTANNRSNKGAVGNCVTTMVHNHYASSKMVSPPKSSNQTAPSLNNIVKAAAREGGEGSDLGKPRKNLSSASQSARGTTGLLRRREVTEEEAERFIHQVNQAAVTIQRWYRCQVQRRRAGAAALEHLLASKREGQRQRLGGGNLLELHRQEEAARKKAREEKARQARQAAIQVLQQKRAQKASEAEHRRPKDRPETRAPEQPRPMQEPGCVTHPKANNAGASIYPTGPADPCPPASESSPEQWQSPEDKPQDIHSQGEARQDLAVSGSSRGKARARATLDDLLDTLKLLEEEPEPLPHPKAYHKDRYAWTDEEEDANSLTADNLEKFGKLSAAPGPPDDGTLLSEAKLQSIMTFLDEMEKSGQERPAPWRESLVLEAGSGSEGSTSVMRLKLELEEKKQAMALLQRALAQQRDLTVRRVKETEKELTRQLRQQKEQYEATIQRHLSFIDQLIEDKKVLSEKCEAVVAELKHGDQRCRERVAQMQEQHELEIKKLKELMSATEKIRREKWINEKTKKIKEITVRGLEPEIQKLIAKHKQEVRRLRGLHEAELQQREEQAAQRHLRQAEELRQHLDREREVLGQQERERAQQRFEQHLEQEQRALEQQRRRLYNEVAEEKERLGQQAARQRAELEELRQQLEESSAALTRALRAEFERSREEQERRHQMELKALKDQLEAERQAWVASCAKKEEAWLLTRERELKEEIRKGRDQEIELVIHRLEADMTLAKEESERAAESRVKRVRDKYETELSELEQSERKLQERCSELKGRLGEAEGEKERLQSLVRQKEKELEDLRAVNTQMCSERASLAQVVRQEFAEQLAASQEETQRVKVELAELQARQQVELDEVHRRVKTALARKEAAVNSLRKQHEAAVKRADHLEELLEQHKGSSLSSK

Reference: article PMC3923683
